Consider one substance from article PMC12794220.

By UniProt entry, the sequences of proteins in these tests, tags left out. Where a name states a change or a piece, a line headed by the entry shows the natural chain unless it says otherwise.
UniProt A0A3Q7IID5: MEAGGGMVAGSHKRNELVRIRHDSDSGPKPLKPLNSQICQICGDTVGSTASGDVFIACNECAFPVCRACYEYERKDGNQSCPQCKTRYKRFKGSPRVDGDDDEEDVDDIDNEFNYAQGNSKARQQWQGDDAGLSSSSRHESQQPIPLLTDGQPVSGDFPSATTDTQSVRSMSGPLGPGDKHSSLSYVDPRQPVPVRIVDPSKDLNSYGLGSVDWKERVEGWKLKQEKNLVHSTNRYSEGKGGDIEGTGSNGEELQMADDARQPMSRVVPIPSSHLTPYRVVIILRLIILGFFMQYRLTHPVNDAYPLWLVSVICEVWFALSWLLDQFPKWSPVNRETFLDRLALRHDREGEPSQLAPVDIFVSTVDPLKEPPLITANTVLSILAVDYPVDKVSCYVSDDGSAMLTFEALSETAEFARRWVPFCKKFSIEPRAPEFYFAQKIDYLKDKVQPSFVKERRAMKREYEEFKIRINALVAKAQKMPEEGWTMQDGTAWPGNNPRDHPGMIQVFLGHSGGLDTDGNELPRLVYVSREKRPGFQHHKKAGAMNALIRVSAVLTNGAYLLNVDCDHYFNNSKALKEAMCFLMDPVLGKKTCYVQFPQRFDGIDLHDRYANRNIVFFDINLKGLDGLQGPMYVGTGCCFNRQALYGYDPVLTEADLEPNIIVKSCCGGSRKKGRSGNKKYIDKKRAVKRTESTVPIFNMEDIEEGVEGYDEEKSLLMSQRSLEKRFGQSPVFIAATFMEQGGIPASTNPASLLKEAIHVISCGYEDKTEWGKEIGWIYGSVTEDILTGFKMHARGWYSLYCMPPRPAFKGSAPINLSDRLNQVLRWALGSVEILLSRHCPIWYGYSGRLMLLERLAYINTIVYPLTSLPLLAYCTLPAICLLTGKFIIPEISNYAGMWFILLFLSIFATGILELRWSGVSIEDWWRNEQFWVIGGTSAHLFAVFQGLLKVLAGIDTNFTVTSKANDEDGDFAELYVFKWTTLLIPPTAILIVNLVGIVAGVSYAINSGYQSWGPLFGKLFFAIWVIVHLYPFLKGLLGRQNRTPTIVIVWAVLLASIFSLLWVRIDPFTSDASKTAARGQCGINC

These are yes or no findings as the source states them, for the method shown. Binding seen in cells or lysates may run through a third protein. These calls come from enrichment with a bait or labelling near it, and not all partners need be listed.

The test deals with SlFWL5-YFP (SlFWL5 fused to yellow fluorescent protein at the C-terminal end) (tomato (Solanum lycopersicum cv. Ailsa Craig)). Description: affinity purification with mass spectrometry; IP-MS/MS: total protein extract (1x PBS, protease inhibitors, 1% Triton X-100, 4 °C) of pooled leaves 6, 5 and 4 of 4-week-old 35S::SlFWL5-YFP tomato plants; anti-GFP microbeads (µMACS Epitope Tag Protein Isolation Kit); about 500 µg soluble protein per assay; control 35S::NLS-GFP-GUS; LC-MS/MS.

Take “SlCesA1, a subunit of the Cellulose Synthase complex (from UniProt A0A3Q7IID5) (enzyme)”: the binding result is given as “binds”.
